The list shows a part of the results.
Each target was assayed with CN1CC[C@H](c2c(O)cc(O)c3c(=O)cc(-c4ccccc4Cl)oc23)[C@H](O)C1 [alvocidib] (assay: log2 fold change, soluble protein after heating vs DMSO (PISA); higher = thermal stabilisation; K562 lysate, 10 uM; active = over 0.2 and 3.5 SD of the protein, either way, in both replicates (recomputed)).
Procedure, shortened: (§1)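 Log-two fold change in thermal stability relative to solvent controls is reported from duplicates. For each sample, crude K562 extract from dounce-homogenised pellets in PBS pH 7.4 with 1 mM MgCl2, at 1 mg/mL protein, was treated with 10 μM compound for 30 min. Aliquots heated for 3 min across 48°C-58°C were pooled, brought to 0.5% NP-40 at 4°C and cleared at 21,000xg for 90 min. The supernatant was quantified by TMTpro 16plex LC-MS/MS with channel sums equalised.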

By UniProt entry, the sequences of proteins in these tests, tags left out. Where a name states a change or a piece, a line headed by the entry shows the natural chain unless it says otherwise.
UniProt Q86VS8: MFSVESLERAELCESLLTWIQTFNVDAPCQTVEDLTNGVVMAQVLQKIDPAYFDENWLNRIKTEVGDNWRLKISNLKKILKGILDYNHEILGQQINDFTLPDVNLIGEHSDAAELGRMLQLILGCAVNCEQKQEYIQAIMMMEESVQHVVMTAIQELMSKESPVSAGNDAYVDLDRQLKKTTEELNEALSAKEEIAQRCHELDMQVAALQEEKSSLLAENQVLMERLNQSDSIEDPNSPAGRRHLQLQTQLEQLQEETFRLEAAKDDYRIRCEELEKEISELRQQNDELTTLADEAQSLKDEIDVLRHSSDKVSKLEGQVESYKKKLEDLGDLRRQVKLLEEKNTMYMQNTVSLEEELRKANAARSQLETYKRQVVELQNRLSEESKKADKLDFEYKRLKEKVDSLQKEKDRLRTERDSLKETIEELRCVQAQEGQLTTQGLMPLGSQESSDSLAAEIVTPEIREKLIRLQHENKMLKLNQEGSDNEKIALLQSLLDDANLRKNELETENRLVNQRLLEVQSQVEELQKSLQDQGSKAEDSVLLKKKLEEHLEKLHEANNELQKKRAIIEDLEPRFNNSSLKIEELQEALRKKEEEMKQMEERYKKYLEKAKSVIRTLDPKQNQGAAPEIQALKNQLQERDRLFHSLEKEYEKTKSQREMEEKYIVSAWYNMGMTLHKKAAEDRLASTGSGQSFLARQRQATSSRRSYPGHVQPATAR
UniProt Q9NQE9: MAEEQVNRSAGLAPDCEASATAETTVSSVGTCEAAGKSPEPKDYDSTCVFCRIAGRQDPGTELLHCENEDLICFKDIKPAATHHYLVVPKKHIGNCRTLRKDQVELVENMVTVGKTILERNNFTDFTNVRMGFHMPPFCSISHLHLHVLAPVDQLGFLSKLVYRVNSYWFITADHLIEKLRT
UniProt P0DMV8, whole entry, looked up: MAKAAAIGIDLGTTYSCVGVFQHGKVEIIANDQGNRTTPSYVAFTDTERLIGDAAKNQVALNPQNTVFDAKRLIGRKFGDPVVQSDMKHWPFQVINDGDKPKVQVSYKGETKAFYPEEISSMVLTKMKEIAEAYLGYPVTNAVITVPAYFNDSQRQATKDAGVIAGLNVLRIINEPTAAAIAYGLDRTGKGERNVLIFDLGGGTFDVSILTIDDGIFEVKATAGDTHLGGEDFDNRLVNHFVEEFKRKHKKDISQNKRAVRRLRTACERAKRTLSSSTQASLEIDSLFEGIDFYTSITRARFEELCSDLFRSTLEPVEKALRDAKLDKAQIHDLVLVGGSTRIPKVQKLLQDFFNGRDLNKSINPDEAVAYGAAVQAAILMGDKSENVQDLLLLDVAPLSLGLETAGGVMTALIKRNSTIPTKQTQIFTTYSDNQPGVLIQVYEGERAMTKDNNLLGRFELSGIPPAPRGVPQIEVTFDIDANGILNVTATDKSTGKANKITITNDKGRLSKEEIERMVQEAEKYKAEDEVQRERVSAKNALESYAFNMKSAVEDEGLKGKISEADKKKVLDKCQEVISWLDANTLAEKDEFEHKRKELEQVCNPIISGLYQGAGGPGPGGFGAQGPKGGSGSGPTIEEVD
UniProt P56937: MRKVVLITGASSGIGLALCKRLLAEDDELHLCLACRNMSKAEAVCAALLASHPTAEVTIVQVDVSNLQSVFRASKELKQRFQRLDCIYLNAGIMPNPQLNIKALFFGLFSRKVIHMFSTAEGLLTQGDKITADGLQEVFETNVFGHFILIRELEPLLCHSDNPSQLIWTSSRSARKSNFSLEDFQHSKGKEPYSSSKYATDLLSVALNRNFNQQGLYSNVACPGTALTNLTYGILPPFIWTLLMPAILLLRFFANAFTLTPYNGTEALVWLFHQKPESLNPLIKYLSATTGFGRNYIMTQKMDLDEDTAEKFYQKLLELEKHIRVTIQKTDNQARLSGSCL
UniProt Q5SSJ5: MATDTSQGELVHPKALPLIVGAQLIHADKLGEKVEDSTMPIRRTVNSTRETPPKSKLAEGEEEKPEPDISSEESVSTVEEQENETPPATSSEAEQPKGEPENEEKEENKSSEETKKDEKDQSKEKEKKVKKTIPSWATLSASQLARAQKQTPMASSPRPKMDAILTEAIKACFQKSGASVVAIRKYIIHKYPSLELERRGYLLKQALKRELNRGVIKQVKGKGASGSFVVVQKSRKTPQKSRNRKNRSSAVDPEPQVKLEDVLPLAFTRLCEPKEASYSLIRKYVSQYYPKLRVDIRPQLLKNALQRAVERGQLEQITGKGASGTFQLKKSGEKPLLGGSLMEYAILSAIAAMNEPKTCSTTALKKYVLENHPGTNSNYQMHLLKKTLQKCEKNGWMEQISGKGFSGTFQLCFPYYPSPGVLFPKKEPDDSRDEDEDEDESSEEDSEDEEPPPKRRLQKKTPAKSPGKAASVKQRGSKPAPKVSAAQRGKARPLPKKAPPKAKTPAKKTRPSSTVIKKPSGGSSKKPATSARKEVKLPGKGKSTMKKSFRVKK
UniProt Q9NWY4: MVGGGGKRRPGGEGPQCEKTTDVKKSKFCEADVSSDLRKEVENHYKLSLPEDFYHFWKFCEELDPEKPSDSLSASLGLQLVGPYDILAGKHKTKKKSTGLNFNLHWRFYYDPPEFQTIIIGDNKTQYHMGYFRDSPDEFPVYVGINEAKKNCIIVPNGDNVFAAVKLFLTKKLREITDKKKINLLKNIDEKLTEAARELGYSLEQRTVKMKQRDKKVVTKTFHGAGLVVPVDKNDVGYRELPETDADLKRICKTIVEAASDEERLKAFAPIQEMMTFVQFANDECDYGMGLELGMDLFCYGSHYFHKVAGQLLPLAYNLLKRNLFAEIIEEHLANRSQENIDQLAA
UniProt P17483: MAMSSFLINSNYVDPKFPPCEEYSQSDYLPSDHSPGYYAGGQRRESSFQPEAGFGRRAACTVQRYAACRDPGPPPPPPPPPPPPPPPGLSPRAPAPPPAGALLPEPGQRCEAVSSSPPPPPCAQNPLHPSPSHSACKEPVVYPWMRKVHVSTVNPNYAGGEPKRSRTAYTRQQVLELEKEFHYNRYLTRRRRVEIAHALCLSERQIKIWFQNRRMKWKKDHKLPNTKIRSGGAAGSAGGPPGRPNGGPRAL
UniProt P54198, whole entry, looked up: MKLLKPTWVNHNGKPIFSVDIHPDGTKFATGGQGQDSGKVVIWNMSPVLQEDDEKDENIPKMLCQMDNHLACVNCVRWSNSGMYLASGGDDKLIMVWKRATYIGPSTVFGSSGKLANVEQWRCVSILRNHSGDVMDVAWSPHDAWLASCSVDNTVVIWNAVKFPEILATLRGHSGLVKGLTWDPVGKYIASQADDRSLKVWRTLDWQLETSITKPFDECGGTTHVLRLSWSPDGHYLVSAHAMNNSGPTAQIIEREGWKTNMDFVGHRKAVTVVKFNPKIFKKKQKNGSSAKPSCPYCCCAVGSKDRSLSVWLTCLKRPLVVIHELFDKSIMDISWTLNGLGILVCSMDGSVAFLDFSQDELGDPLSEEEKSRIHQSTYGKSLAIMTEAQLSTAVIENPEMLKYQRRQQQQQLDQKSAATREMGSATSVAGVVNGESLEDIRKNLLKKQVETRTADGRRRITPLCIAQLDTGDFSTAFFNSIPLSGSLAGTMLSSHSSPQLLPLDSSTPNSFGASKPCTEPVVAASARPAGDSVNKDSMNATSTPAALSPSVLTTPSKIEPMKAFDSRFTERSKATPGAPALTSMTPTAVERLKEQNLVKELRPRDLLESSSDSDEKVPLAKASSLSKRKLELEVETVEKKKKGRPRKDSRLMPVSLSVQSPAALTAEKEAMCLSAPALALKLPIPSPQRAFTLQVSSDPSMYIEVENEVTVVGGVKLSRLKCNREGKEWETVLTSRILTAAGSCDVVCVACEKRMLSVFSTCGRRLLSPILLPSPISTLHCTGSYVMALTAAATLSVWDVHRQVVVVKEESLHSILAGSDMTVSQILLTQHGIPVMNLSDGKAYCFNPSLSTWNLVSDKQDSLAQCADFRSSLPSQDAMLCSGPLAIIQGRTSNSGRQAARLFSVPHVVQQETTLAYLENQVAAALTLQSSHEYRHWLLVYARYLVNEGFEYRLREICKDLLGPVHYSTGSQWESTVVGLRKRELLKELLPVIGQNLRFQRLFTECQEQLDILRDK
UniProt Q8WVB3: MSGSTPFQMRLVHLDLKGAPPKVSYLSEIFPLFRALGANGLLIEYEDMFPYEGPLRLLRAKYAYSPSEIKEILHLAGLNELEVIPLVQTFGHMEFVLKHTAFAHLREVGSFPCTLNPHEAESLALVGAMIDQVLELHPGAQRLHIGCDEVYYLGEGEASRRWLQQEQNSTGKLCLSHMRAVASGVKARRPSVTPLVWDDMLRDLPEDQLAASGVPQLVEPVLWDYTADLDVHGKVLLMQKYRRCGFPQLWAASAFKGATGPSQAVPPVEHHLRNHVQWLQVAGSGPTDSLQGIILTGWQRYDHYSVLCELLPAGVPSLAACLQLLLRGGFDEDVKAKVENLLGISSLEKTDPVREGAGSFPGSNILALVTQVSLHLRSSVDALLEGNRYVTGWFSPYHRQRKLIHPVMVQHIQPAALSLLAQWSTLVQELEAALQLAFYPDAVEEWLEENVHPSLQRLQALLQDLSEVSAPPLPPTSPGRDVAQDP
UniProt P19367: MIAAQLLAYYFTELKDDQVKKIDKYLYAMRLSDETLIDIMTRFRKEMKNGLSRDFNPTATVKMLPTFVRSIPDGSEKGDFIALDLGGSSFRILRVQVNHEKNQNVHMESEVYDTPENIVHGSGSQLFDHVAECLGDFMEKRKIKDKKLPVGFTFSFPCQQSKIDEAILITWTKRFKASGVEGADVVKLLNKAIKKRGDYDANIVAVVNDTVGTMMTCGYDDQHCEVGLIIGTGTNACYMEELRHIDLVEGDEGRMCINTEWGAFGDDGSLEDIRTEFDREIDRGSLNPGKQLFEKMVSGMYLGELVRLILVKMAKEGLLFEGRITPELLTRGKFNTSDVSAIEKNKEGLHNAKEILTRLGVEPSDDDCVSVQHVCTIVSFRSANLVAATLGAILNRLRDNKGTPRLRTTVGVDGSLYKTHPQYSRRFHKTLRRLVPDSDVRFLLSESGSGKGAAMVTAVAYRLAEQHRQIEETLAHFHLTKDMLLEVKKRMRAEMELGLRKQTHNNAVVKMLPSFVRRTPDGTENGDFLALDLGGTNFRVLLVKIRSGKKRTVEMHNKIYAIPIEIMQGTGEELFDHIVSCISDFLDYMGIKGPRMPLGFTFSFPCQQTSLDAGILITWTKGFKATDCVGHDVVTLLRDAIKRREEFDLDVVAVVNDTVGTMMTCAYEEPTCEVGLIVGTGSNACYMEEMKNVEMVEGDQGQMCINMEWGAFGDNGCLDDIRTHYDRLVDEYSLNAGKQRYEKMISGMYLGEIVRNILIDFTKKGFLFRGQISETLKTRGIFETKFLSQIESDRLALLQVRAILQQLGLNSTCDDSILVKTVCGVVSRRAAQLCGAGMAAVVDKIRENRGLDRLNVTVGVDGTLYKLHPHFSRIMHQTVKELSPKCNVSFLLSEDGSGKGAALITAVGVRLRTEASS
UniProt Q9BTY7: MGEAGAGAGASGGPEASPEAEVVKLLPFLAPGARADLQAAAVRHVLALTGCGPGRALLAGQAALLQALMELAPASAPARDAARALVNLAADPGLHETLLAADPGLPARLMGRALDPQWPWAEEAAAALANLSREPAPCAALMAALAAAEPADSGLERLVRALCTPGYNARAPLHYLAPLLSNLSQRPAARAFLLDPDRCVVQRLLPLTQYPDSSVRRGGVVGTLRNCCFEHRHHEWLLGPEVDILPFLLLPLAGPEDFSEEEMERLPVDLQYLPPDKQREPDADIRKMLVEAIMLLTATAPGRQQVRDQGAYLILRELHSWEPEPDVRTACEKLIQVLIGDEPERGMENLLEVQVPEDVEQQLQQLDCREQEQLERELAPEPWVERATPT
UniProt Q8NCD3, whole entry, looked up: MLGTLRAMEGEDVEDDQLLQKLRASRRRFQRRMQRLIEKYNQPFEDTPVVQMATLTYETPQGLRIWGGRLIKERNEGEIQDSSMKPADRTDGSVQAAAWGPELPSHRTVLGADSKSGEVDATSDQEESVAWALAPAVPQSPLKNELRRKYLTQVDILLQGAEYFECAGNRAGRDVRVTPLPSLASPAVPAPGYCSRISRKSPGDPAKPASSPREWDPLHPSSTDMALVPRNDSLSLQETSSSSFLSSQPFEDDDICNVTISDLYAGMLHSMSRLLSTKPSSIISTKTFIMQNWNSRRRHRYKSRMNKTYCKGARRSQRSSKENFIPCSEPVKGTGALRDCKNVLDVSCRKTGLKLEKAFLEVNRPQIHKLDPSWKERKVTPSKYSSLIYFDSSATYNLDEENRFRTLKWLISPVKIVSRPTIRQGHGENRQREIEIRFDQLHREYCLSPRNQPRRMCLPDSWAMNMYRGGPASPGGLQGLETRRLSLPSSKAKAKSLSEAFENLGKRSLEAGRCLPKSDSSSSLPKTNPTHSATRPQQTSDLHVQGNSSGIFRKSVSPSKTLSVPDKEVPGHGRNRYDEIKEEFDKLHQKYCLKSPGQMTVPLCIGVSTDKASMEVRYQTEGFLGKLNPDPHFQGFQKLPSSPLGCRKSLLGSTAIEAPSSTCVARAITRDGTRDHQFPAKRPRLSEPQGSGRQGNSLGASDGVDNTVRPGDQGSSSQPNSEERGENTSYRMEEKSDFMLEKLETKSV

log2 fold change, inactive:
HOOK3 (UniProt Q86VS8) -0.001
HINT3 (UniProt Q9NQE9) 0.023
HPS5 (UniProt Q9UPZ3) -0.11
HNMT (UniProt P50135) -0.013
HSBP1 (UniProt O75506) -0.056
HNRNPR isoform 2 (UniProt O43390) 0.011
HSPA1A (UniProt P0DMV8) 0.047
HSD17B7 (UniProt P56937) 0.032
HP1BP3 (UniProt Q5SSJ5) -0.02
HPF1 (UniProt Q9NWY4) 0.031
HECTD4 (UniProt J3KPF0) -0.027
HNRNPA2B1 (UniProt P22626) -0.022
HERPUD1 (UniProt Q15011) -0.068
HOXB9 (UniProt P17482) 0.019
HPS1 (UniProt Q92902) -0.045
HOXB4 (UniProt P17483) -0.064
HIRA (UniProt P54198) 0.053
HEXD isoform 2 (UniProt Q8WVB3) 0.002
HK1 isoform 2 (UniProt P19367) -0.001
HEATR6 (UniProt Q6AI08) 0.03
HSF2 (UniProt Q03933) -0.029
HNRNPF (UniProt P52597) -0.016
HPS3 (UniProt Q969F9) -0.025
HSCB (UniProt Q8IWL3) -0.034
HMCN1 (UniProt Q96RW7) 0.151
HSP90AA1 isoform 2 (UniProt P07900) 0.019
HGH1 (UniProt Q9BTY7) 0.019

The targets below were run with CN1CCc2c(c3ccccc3n2Cc2ccc(C(=O)NO)cc2)C1 [Tubastatin A] in the same assay as above.
Procedure, shortened: as §1

log2 fold change, inactive:
HOOK3 (UniProt Q86VS8) -0.019
HINT3 (UniProt Q9NQE9) 0.025
HPS5 (UniProt Q9UPZ3) -0.157
HECW2 (UniProt Q9P2P5) -0.002
HSBP1 (UniProt O75506) -0.111
HNRNPR isoform 2 (UniProt O43390) -0.057
HSPA1A (UniProt P0DMV8) 0.079
HSD17B7 (UniProt P56937) -0.018
HP1BP3 (UniProt Q5SSJ5) -0.032
HPF1 (UniProt Q9NWY4) -0.09
HECTD4 (UniProt J3KPF0) -0.075
HNRNPA2B1 (UniProt P22626) -0.004
HOXB9 (UniProt P17482) -0.217
HPS1 (UniProt Q92902) -0.001
HOXB4 (UniProt P17483) 0.082
HIRA (UniProt P54198) -0.059
HJURP (UniProt Q8NCD3) -0.052
HEXD isoform 2 (UniProt Q8WVB3) -0.008
HK1 isoform 2 (UniProt P19367) -0.038
HEATR6 (UniProt Q6AI08) -0.1
HSF2 (UniProt Q03933) -0.019
HNRNPF (UniProt P52597) -0.156
HPS3 (UniProt Q969F9) -0.238
HPS4 isoform 4 (UniProt Q9NQG7) -0.005
HSCB (UniProt Q8IWL3) 0.014
HMCN1 (UniProt Q96RW7) 0.077
HSP90AA1 isoform 2 (UniProt P07900) 0.047
HGH1 (UniProt Q9BTY7) -0.111
